Measurements reported in patent US20100286024A1 (priority 2005, published 2010).

How the values were obtained:
[1] = general procedure: Fmoc solid-phase peptide synthesis; HMPA-PEGA resin; HCTU/DIPEA; conditions: whole synthesis, overall, scale of the general procedure 0.2 mmol
[2] = general procedure: Fmoc solid-phase peptide synthesis; PL-PEGA resin (Polymer Labs) with HMPA handle; HCTU/DIPEA; conditions: whole synthesis

GLP-1 NH2-L-His-L-Ala-urea-9-37 (EGTFTSDVSSYLEGQAAKEFIAWLVKGRG; N-terminus of Glu9 joined through a urea carbonyl (from carbonyldiimidazole) to the amino group of NH2-L-Ala-L-His-carboxamide; the dipeptide runs in the reversed direction and ends in a carboxamide)
isolated yield [1]: about 10% overall yield

L-His-NH-NH-CH2-C(O)-Glu9-37
difficulty met ([2]; scale of the general procedure 0.2 mmol): This was found to be 39% of theoretical, and the coupling was repeated.

L-His-NH—NH—CH(CH3)—C(O)-Glu9-37
difficulty met ([2]; scale 0.2 mmol): Fmoc release of the resin showed a failed coupling
